The text below walks through data of US11612612B2, “Pharmaceutical compositions” (CIPLA LIMITED, priority 2016, dated 2023).

The term Papp A→B denotes the apparent permeability from the apical to the basolateral side of a cell layer. A low value points to slow passage.

This series is described as follows: in vitro. The note with it: human, Caco-2. As for the experimental part:
Cells were treated with drugs as follows:
Stock preparations: 10 mM stocks of all the drugs were prepared in DMSO. The test concentrations were further prepared in HBSS buffer containing 10 mM MES hydrate pH 6.8 as per the plate plan. Also, HBSS buffer with 10 mM HEPES with pH 7.4 was prepared.
The sample were analyzed on LCMS-MS.

Compound `CC(C)NCC(O)COc1ccc(CC(N)=O)cc1` (stereo not shown) [Atenolol] showed a Papp A→B at 120 min, 50 μM of 3.28 ×10⁻⁶ cm/s.
